Most values lie at the floor of the assay. Slopes are relative: functional sequences can read slightly below zero.
What follows are substances tested on Saccharomyces cerevisiae PS128 hsf1 delta, HSF1(1-493) fusion (assay: growth estimate (transactivation domain function in HSF1 fusion, heat-shock survival) (a.u. (slope of normalised read count over time)); higher = stronger growth at 37°C, i.e. more transactivation activity). Conditions: library: random library.
Work on LYRPG yielded a growth estimate of less than -0.25. Work on WEPFSFGAQGGALALSENGW yielded a growth estimate of less than -0.25. Work on ALTYNRVFSSGTSH yielded a growth estimate of less than -0.25. Substance PKT has a growth estimate of less than -0.25. AGGCSAIP showed a growth estimate of less than -0.25. With WNTSEYSPEQVRKDPPRGVM the growth estimate was less than -0.25. EDPNGRKNTLRRDLY showed a growth estimate of less than -0.25. Work on WVLRAFIRHPREVTKGRPPV yielded a growth estimate of less than -0.25. With RWATAESRLVL the growth estimate was less than -0.25. IARMHVAVFGASHTEK showed a growth estimate of less than -0.25. In the case of VICNKKQRSTAIGAIE, the growth estimate is reported as less than -0.25. GRMLLGRVLSAFADAQERSW showed a growth estimate of less than -0.25. QNGKTLFDH was tested, and the growth estimate was less than -0.25. Substance ANGSVAISRQPTGRHGLPQQ has a growth estimate of less than -0.25. In the case of GPKYKVWLYMGKAGSVSNEA, the growth estimate is reported as less than -0.25. QLVGGKNSSMSGLGRIKY was tested, and the growth estimate was less than -0.25. For DTTSQRLSTPYTLPEATLPQ, the growth estimate was -0.237. For RGTREVHWGPSGKIISG, the growth estimate was -0.231. Substance AVQIRTSARSSSNY has a growth estimate of less than -0.25. For RIGLK, the growth estimate was less than -0.25. Substance GFRTVNGRLDCSEGA has a growth estimate of less than -0.25. In the case of SPI, the growth estimate is reported as less than -0.25. With SVSS the growth estimate was less than -0.25. IPVASNTPANSMTVPTKHFL was tested, and the growth estimate was less than -0.25. ACNSTPEGVNR showed a growth estimate of less than -0.25. With TVCIEARDTASIPDAGPSVP the growth estimate was less than -0.25. KANFRCEYLYRQGSHCHSSW showed a growth estimate of less than -0.25. Work on GSAPCPRPL yielded a growth estimate of less than -0.25. Substance QTNCAFHGRPHYEFATPPGT has a growth estimate of less than -0.25. Substance PNCSVACRRKTSWLHGQSTA has a growth estimate of -0.246. Work on RVSLGYTETHPSRAYLAKNH yielded a growth estimate of less than -0.25. In the case of EQCKLCPKSRSLIL, the growth estimate is reported as less than -0.25. For EQRD, the growth estimate was less than -0.25. With LWHGWNELSSVYKCITYFKS the growth estimate was less than -0.25. GTVPSRGACLSWGGKIMFVS was tested, and the growth estimate was less than -0.25. WLWP showed a growth estimate of -0.106. GLPENTEKVCDF gave a growth estimate of less than -0.25. RGAEDCRV showed a growth estimate of less than -0.25. AEERQTMKICLRKRGQAVGA gave a growth estimate of less than -0.25. RTIRKCNYNMPMADACPWYG gave a growth estimate of less than -0.25. IWKSRFQRGSKKTILLE was tested, and the growth estimate was less than -0.25. RQCAWNSTDICYVRLS was tested, and the growth estimate was less than -0.25. RVLWGRAHHLVAGTKKL gave a growth estimate of less than -0.25. RNPSGARAVGGWVEYRLTLW was tested, and the growth estimate was less than -0.25. HRT showed a growth estimate of less than -0.25. QGYNTYFITQKVCATE gave a growth estimate of less than -0.25. With RRSMFSVRVLMNRPPHP the growth estimate was less than -0.25. With LYIPSRFSRDLLKRALVIAL the growth estimate was less than -0.25. HGTARLGRGRRQIV was tested, and the growth estimate was less than -0.25. With HNPQS the growth estimate was less than -0.25. For CSQRLGMFKEGDVYSRRPPR, the growth estimate was less than -0.25. For VAAEKLVSPFNKVAGKRFHF, the growth estimate was less than -0.25. With SMGDPGMEPMLGPGAHFDHK the growth estimate was less than -0.25. FTRMTALTRREVSVTGVHQT was tested, and the growth estimate was less than -0.25. Work on AGRVAPFRGTRH yielded a growth estimate of less than -0.25. GRTVT showed a growth estimate of less than -0.25. MTFLQTGLRTGLFTITLWRP showed a growth estimate of less than -0.25. FSASLFAKSSQSTRLHSPTQ showed a growth estimate of less than -0.25. GYIEWV showed a growth estimate of less than -0.25. CAIDEGFAQGYSRSPYKRPG gave a growth estimate of less than -0.25. For SAG, the growth estimate was less than -0.25. In the case of RTDIVTAGKRTIRSRYSCSQ, the growth estimate is reported as less than -0.25. NESAASRQILS gave a growth estimate of less than -0.25. With LSTVQMKG the growth estimate was less than -0.25. For ECVV, the growth estimate was less than -0.25. In the case of SGVGERRYKRSLRLVAELMI, the growth estimate is reported as less than -0.25. GEYQR showed a growth estimate of less than -0.25. SKKVPSRPQAEVWLETD gave a growth estimate of less than -0.25. In the case of PLQRCQDLCLFCRELRLRAD, the growth estimate is reported as less than -0.25. For IEISHPACAENGAGPAWPVP, the growth estimate was less than -0.25. For FCIGFTMTEVVRFLLSLS, the growth estimate was less than -0.25. ISGQPTKVRTYQKLPGIEP was tested, and the growth estimate was less than -0.25. Substance ESGSPRRGFLHHSLVFYCGP has a growth estimate of less than -0.25. Work on CSVKWSCRASVWTWAKRAEA yielded a growth estimate of less than -0.25. For SVKSPLPRSPP, the growth estimate was less than -0.25. SLWTRSLVLGVREVRELSNK was tested, and the growth estimate was less than -0.25. Substance SYGQTTEATARVWLKAMHSK has a growth estimate of less than -0.25. VEAHLFFEARHIAV gave a growth estimate of less than -0.25. In the case of PGYFNSTVPCYVSPGIHHGL, the growth estimate is reported as less than -0.25. Work on VGRVW yielded a growth estimate of less than -0.25. For TPAERMNRTAQRPNKDSSPL, the growth estimate was -0.222. With NSPTRYGVVVHLTSHGGNRG the growth estimate was less than -0.25. Substance GSLVLSPVPQGPATG has a growth estimate of less than -0.25. For PIGFSPVEIEHCIASGREWF, the growth estimate was less than -0.25. Work on TLKLE yielded a growth estimate of less than -0.25. RPAFIKEGSTCVIQPRQGGY was tested, and the growth estimate was less than -0.25. KVELDTGSLTITDGHAVTAE showed a growth estimate of less than -0.25. NNWTE gave a growth estimate of less than -0.25. With DDGMRKN the growth estimate was less than -0.25. Substance SIWKSAKIQI has a growth estimate of less than -0.25. Work on KMPSPNP yielded a growth estimate of less than -0.25. YLKASPRGGT gave a growth estimate of less than -0.25. For YWNVVLYTTKRPRRSARPIS, the growth estimate was less than -0.25. FASCRHVG showed a growth estimate of less than -0.25. With DAYKSPRLCTRL the growth estimate was less than -0.25. Work on HCYDGISVDVRVPVGRLK yielded a growth estimate of less than -0.25. For WLKVLATTRRVVNRTSDVKS, the growth estimate was less than -0.25. TGNLDSFSPSGLIDLH showed a growth estimate of less than -0.25. Substance SKAYISNLNRQVEGRGNQDT has a growth estimate of less than -0.25. In the case of EFRS, the growth estimate is reported as less than -0.25. RSRLQPEVKMGSNRCIAALR showed a growth estimate of less than -0.25. In the case of VKGQWLVTGGQHFNFLLS, the growth estimate is reported as less than -0.25. In the case of YDGRGHGGIVQDRL, the growth estimate is reported as less than -0.25. For LPLAKSHRKWAAWKRSLTLD, the growth estimate was less than -0.25. Work on PTHDLIRVYILPLLTFYPST yielded a growth estimate of less than -0.25. With ATNALLS the growth estimate was less than -0.25. With GPHTLKLPRYFMSELRKFLP the growth estimate was less than -0.25. In the case of ALARQRSRLEQGILEEHTYN, the growth estimate is reported as less than -0.25. For RTVMEGASNSYV, the growth estimate was less than -0.25. RSMPGGCVGFCIAGERTIPC was tested, and the growth estimate was -0.243. Work on GKTLP yielded a growth estimate of less than -0.25. With PTSLTPYAIGQWWLLCIEKN the growth estimate was less than -0.25. QERPYIMLST was tested, and the growth estimate was less than -0.25. RRGQW showed a growth estimate of less than -0.253. LCTRLPRVGRAAIHATREMD gave a growth estimate of less than -0.25. VEGGKVKKLKHEPSAISRGS was tested, and the growth estimate was less than -0.25. MSSALARPQPEGLNYGQ showed a growth estimate of less than -0.25. Work on MGMRNAF yielded a growth estimate of less than -0.25. SRRKTGSFCQKGPNRRNAHG gave a growth estimate of less than -0.25. LDL gave a growth estimate of less than -0.25. FNIVRGLPHTD gave a growth estimate of less than -0.25. VRQWQRTTGLGM showed a growth estimate of less than -0.25. MVANNARGIILVC showed a growth estimate of less than -0.25. ISSAESGQPLSWVKMPWLPR showed a growth estimate of less than -0.25. With RGRN the growth estimate was less than -0.25. For HIRV, the growth estimate was less than -0.25. With EGDSTGQYSQKNHPRQRFDG the growth estimate was less than -0.25. In the case of FVSER, the growth estimate is reported as less than -0.25. For MLLGGCPPQRLTPHVVTPID, the growth estimate was less than -0.25. GPERSTGNAKSRTH was tested, and the growth estimate was less than -0.25. Substance YHHPCSPVHDATRGDVSPPY has a growth estimate of less than -0.25. Work on SSRKLQFHQSFNGRLASFIP yielded a growth estimate of less than -0.25. SLDQEPGTCSAS showed a growth estimate of less than -0.25. Work on CGPVGNRETSTYITGLSWAL yielded a growth estimate of less than -0.25. For VRVPQSFRARISRPRNTHSH, the growth estimate was less than -0.25. Substance RSISRLHSDTVYVNREIIGG has a growth estimate of less than -0.25. TEDTHANVPVNTIAVRCRPP showed a growth estimate of less than -0.25. Substance RVQIQRVDALVIVCWLRWGG has a growth estimate of less than -0.25. Work on RMIRCVNYGAPDSRGLAVHF yielded a growth estimate of less than -0.25. For TYTPACWQYPARTWHGSGGL, the growth estimate was 0.298. With PSVSKSARSN the growth estimate was less than -0.25. SQCNGKLSAISARRCLQRYR showed a growth estimate of less than -0.25. In the case of YPG, the growth estimate is reported as less than -0.25. IRPEVALEGCGIHSNQGDRS was tested, and the growth estimate was less than -0.25. Work on HVLIENTHELVVTREAGHLL yielded a growth estimate of less than -0.25. For VIMDCLWRMRYWNRDARSLP, the growth estimate was less than -0.25. With NGTAKVRAGPVTIVVTTTLF the growth estimate was less than -0.25. RLQVVTTGLAGQIKTVERSV gave a growth estimate of less than -0.25. CGSLGVPRGTTTRLKVLMPR was tested, and the growth estimate was less than -0.25. For PLGARTGRLLPMVLRFTIFS, the growth estimate was less than -0.25. Work on RNFQ yielded a growth estimate of -0.25. LPYKCNPTPELIVAETAVFH gave a growth estimate of less than -0.25. GSSIQSQGYPGLVGSSHRLE was tested, and the growth estimate was -0.0559. GDGMSCRFTQRKTLHAQVRA was tested, and the growth estimate was less than -0.25. VRPSLRRGQRHTRHGRVNHD was tested, and the growth estimate was less than -0.25. TDCLEAGATVYLRMNFEGRD gave a growth estimate of less than -0.25.

Reference: the supplement of paper PMC5949888
